Reference: the supplement of paper PMC7661543
The effect of the compound repeats well; differences between the knockouts mostly do not.

Test system: SKBR3
Assay: relative cell number vs DMSO control (72 h) (% of DMSO); higher = less growth inhibition (more cells)
Procedure: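 QMAP-Seq: a pool of 5 breast cancer cell lines (ZR-75-1, SKBR3, HCC-38, MDA-MB-231, BT-20), each carrying 12 doxycycline-inducible Cas9 sgRNA perturbations (11 knockouts plus non-targeting sgNT), was treated with compounds for 72 h at four 10-fold doses (10 nM-10 uM or 1 nM-1 uM range). Barcodes were amplified and sequenced, and cell number was interpolated from 293T spike-in standard curves. The result is expressed as % of the median of DMSO wells. Two biological replicates.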

O=C1c2c(O)ccc(O)c2C(=O)c2c(NCCNCCO)ccc(NCCNCCO)c21 [Mitoxantrone]
Details	relative cell number
sgRNA knockout: sgATF3, 10 nM	45.6
sgRNA knockout: sgATF3, 100 nM	17.8
sgRNA knockout: sgATF3, 1000 nM	6.03
sgRNA knockout: sgATF3, 10000 nM	6.82
sgRNA knockout: sgATF4, 10 nM	52.1
sgRNA knockout: sgATF4, 100 nM	27.2
sgRNA knockout: sgATF4, 1000 nM	8.52
sgRNA knockout: sgATF4, 10000 nM	4.59
sgRNA knockout: sgATF6, 10 nM	50.1
sgRNA knockout: sgATF6, 100 nM	22.1
sgRNA knockout: sgATF6, 1000 nM	6.71
sgRNA knockout: sgATF6, 10000 nM	4.34
sgRNA knockout: sgATG7, 10 nM	56.7
sgRNA knockout: sgATG7, 100 nM	23.7
sgRNA knockout: sgATG7, 1000 nM	4.04
sgRNA knockout: sgATG7, 10000 nM	7.83
sgRNA knockout: sgERN1, 10 nM	36.4
sgRNA knockout: sgERN1, 100 nM	25.6
sgRNA knockout: sgERN1, 1000 nM	6.16
sgRNA knockout: sgERN1, 10000 nM	7.09
sgRNA knockout: sgHSF1, 10 nM	55.1
sgRNA knockout: sgHSF1, 100 nM	22.3
sgRNA knockout: sgHSF1, 1000 nM	6.59
sgRNA knockout: sgHSF1, 10000 nM	5.26
sgRNA knockout: sgHSF2, 10 nM	38.8
sgRNA knockout: sgHSF2, 100 nM	24.1
sgRNA knockout: sgHSF2, 1000 nM	7.5
sgRNA knockout: sgHSF2, 10000 nM	6.11
sgRNA knockout: sgKEAP1, 10 nM	38.6
sgRNA knockout: sgKEAP1, 100 nM	27.2
sgRNA knockout: sgKEAP1, 1000 nM	9.05
sgRNA knockout: sgKEAP1, 10000 nM	6.46
sgRNA knockout: sgNFE2L2, 10 nM	46.9
sgRNA knockout: sgNFE2L2, 100 nM	17.2
sgRNA knockout: sgNFE2L2, 1000 nM	7.088
sgRNA knockout: sgNFE2L2, 10000 nM	7.13
sgRNA knockout: sgSLC35F2, 10 nM	47.2
sgRNA knockout: sgSLC35F2, 100 nM	23.6
sgRNA knockout: sgSLC35F2, 1000 nM	6.35
sgRNA knockout: sgSLC35F2, 10000 nM	6.6
sgRNA knockout: sgXBP1, 10 nM	41.4
sgRNA knockout: sgXBP1, 100 nM	24.5
sgRNA knockout: sgXBP1, 1000 nM	6.11
sgRNA knockout: sgXBP1, 10000 nM	7.42

O=C(/C=C/c1ccc(O)cc1)c1ccc(O)cc1O [Isoliquiritigenin]
Details	relative cell number
sgRNA knockout: sgATF3, 10 nM	105
sgRNA knockout: sgATF3, 100 nM	107
sgRNA knockout: sgATF3, 1000 nM	95.2
sgRNA knockout: sgATF3, 10000 nM	96
sgRNA knockout: sgATF4, 10 nM	88.5
sgRNA knockout: sgATF4, 100 nM	98.3
sgRNA knockout: sgATF4, 1000 nM	89.4
sgRNA knockout: sgATF4, 10000 nM	83.2
sgRNA knockout: sgATF6, 10 nM	105
sgRNA knockout: sgATF6, 100 nM	98.6
sgRNA knockout: sgATF6, 1000 nM	84.6
sgRNA knockout: sgATF6, 10000 nM	96.8
sgRNA knockout: sgATG7, 10 nM	89.9
sgRNA knockout: sgATG7, 100 nM	92.1
sgRNA knockout: sgATG7, 1000 nM	85.8
sgRNA knockout: sgATG7, 10000 nM	103
sgRNA knockout: sgERN1, 10 nM	104
sgRNA knockout: sgERN1, 100 nM	125
sgRNA knockout: sgERN1, 1000 nM	110
sgRNA knockout: sgERN1, 10000 nM	102
sgRNA knockout: sgHSF1, 10 nM	96.7
sgRNA knockout: sgHSF1, 100 nM	105
sgRNA knockout: sgHSF1, 1000 nM	91.4
sgRNA knockout: sgHSF1, 10000 nM	88.9
sgRNA knockout: sgHSF2, 10 nM	86.7
sgRNA knockout: sgHSF2, 100 nM	99.3
sgRNA knockout: sgHSF2, 1000 nM	83.5
sgRNA knockout: sgHSF2, 10000 nM	83
sgRNA knockout: sgKEAP1, 10 nM	93.9
sgRNA knockout: sgKEAP1, 100 nM	98.3
sgRNA knockout: sgKEAP1, 1000 nM	88.4
sgRNA knockout: sgKEAP1, 10000 nM	85.5
sgRNA knockout: sgNFE2L2, 10 nM	85.7
sgRNA knockout: sgNFE2L2, 100 nM	99.4
sgRNA knockout: sgNFE2L2, 1000 nM	84.5
sgRNA knockout: sgNFE2L2, 10000 nM	84.1
sgRNA knockout: sgSLC35F2, 10 nM	95.4
sgRNA knockout: sgSLC35F2, 100 nM	84
sgRNA knockout: sgSLC35F2, 1000 nM	77.4
sgRNA knockout: sgSLC35F2, 10000 nM	82.5
sgRNA knockout: sgXBP1, 10 nM	106
sgRNA knockout: sgXBP1, 100 nM	97.6
sgRNA knockout: sgXBP1, 1000 nM	109
sgRNA knockout: sgXBP1, 10000 nM	75
